Molecules are shown by their SMILES. This is a selection; strong and weak results do not stand in their true shares. Records with an inconclusive call do not appear. Activity calls are given as the source filed them. The calls were made as follows: active = hit-call score of the fitted dose curve at least 0.9, where 1 is the maximum; inconclusive = response in the unintended direction; inactive = score below 0.9.

In this assay the test system is frog Retinoid X Receptor beta (RXRb), gene 394278. In words: ATG_frRXRb_EcoTox2: Attagene TRANS-FACTORIAL EcoTox-2 HepG2 Assay for frog Retinoid X Receptor beta (RXRb). The protocol:
ATG_EcoTox2 is a cell-based, multiplexed assay created by modifying the existing Attagene TRANS-FACTORIAL system to include a panel of nuclear receptors from some or all the following species: human (Homo sapiens), african clawed frog (Xenopus laevis), rainbow trout (Oncorhynchus mykiss), japanese medaka (Oryzias latipes), and zebrafish (Danio rerio). The ECOTOX2-FACTORIAL format uses HepG2, a human liver cell line, with measurements taken at 24 hours after chemical dosing in a 24-well plate. ATG_frRXRb_EcoTox2 is one of 29 assay components calculated in the ATG_EcoTox2 assay. It is designed to make measurements of mRNA induction, a form of inducible reporter, as detected with fluorescence intensity signals by Reverse transcription polymerase chain reaction (RT-PCR) and Capillary electrophoresis technology.The assay endpoint ATG_frRXRb_EcoTox2 was analyzed in the positive analysis fitting direction relative to DMSO as the negative control and baseline of activity. Using a type of inducible reporter, measures of mRNA for gain-of-signal activity can be used to understand the reporter gene at the transcription factor-level as they relate to the gene RXRb. Furthermore, this assay endpoint can be referred to as a primary readout, because this assay has produced multiple assay endpoints where this one serves a reporter gene function. […]

With `CC(C)(Oc1ccc(CCNC(=O)c2ccc(Cl)cc2)cc1)C(=O)O`, the molecule was classed as inactive.

(Values after PubChem BioAssay AID2284378 (EPA ToxCast).)
